# Some of the results follow. Small differences around the control level are noise.
# By UniProt entry, the sequences of proteins in these tests, tags left out. Where a name states a change or a piece, a line headed by the entry shows the natural chain unless it says otherwise.
# UniProt Q9EPQ7, whole entry: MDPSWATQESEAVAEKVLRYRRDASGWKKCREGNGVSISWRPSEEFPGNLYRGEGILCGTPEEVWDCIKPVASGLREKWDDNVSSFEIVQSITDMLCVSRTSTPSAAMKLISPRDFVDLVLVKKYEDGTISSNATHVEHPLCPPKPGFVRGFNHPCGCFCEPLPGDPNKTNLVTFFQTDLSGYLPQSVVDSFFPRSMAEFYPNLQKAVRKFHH
# UniProt Q9DCP2, whole entry: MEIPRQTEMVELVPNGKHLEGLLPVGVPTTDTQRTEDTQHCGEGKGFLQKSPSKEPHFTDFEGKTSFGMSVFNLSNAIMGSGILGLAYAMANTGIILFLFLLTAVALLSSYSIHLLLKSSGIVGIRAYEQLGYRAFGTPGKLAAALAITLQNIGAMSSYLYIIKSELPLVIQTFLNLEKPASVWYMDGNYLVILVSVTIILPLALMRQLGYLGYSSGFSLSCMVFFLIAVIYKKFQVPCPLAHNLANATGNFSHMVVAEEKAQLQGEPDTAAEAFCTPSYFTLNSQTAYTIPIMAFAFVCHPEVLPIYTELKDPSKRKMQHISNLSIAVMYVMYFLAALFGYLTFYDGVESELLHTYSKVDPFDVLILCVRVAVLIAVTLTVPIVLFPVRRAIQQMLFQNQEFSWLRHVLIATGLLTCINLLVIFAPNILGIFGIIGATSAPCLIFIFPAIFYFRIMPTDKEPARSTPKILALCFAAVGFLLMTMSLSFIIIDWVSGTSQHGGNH
# UniProt Q9EPL8, whole entry: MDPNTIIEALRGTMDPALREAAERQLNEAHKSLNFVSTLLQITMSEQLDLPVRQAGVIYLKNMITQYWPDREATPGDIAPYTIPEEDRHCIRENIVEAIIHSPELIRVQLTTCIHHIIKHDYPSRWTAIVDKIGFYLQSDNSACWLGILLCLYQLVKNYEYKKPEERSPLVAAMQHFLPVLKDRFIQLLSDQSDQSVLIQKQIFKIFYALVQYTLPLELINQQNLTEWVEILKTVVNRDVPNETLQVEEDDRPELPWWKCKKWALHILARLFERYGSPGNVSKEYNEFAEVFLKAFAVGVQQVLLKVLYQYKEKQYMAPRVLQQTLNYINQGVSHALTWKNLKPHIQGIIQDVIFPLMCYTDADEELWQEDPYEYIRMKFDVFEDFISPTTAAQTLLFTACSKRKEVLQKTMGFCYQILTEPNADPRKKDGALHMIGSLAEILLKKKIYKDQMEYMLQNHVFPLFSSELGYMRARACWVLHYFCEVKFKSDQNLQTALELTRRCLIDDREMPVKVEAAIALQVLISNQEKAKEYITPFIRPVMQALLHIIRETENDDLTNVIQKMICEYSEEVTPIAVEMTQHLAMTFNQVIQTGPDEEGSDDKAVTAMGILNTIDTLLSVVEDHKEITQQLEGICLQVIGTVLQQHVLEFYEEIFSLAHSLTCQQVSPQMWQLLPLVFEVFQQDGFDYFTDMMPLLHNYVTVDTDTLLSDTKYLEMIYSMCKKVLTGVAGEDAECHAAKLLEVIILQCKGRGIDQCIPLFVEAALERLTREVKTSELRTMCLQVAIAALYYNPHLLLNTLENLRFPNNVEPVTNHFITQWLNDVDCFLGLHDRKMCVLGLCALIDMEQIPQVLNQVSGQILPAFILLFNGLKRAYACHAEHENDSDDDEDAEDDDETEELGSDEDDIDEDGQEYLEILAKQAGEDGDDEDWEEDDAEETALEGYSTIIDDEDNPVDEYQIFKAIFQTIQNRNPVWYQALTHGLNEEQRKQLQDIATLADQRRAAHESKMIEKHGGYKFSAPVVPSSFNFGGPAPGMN
# UniProt Q9EQU5, whole entry: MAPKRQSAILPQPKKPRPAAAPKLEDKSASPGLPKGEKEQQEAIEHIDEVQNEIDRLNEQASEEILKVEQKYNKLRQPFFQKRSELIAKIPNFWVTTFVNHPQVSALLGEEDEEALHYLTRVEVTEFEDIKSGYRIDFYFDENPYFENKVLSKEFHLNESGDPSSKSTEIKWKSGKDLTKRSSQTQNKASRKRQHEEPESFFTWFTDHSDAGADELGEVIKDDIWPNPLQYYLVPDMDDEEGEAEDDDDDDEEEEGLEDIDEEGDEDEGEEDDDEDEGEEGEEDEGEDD
# UniProt Q9DC07: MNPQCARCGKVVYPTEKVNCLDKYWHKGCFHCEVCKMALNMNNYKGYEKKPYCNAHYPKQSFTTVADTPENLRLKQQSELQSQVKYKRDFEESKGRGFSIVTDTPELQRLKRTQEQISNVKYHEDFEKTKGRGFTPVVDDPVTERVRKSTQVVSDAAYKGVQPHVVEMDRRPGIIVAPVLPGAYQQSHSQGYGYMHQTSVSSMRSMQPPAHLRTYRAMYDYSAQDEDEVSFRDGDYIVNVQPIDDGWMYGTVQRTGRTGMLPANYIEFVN
# UniProt Q9DB25: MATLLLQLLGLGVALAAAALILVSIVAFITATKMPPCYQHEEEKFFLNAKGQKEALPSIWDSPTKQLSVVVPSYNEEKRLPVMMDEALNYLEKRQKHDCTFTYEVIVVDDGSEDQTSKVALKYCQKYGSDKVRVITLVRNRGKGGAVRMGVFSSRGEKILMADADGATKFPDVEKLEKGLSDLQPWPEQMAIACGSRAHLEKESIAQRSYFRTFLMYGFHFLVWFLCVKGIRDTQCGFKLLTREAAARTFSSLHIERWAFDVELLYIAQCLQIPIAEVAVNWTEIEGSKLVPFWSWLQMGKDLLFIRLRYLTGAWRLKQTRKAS
# UniProt Q9EQH4, whole entry: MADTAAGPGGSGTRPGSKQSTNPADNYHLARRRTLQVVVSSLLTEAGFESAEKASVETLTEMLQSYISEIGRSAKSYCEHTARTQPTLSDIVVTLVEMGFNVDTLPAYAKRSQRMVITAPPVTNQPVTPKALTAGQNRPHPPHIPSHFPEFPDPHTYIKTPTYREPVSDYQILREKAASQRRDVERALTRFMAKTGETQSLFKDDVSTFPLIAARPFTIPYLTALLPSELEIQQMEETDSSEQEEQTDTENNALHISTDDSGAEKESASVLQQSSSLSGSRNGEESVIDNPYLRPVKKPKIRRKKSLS
# UniProt Q9EPK6: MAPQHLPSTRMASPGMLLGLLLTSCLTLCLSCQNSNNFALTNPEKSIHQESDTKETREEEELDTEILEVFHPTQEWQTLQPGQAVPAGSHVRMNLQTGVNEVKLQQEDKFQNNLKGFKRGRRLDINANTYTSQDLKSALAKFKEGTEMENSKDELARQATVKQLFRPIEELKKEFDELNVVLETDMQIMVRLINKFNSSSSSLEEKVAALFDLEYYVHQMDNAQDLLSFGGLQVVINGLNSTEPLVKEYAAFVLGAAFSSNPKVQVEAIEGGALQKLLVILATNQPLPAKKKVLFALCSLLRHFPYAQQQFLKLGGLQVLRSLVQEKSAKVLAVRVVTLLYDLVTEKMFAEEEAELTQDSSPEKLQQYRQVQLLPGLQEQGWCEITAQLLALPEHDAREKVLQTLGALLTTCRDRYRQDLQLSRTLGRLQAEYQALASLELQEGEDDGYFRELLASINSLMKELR
# UniProt Q9EQ09: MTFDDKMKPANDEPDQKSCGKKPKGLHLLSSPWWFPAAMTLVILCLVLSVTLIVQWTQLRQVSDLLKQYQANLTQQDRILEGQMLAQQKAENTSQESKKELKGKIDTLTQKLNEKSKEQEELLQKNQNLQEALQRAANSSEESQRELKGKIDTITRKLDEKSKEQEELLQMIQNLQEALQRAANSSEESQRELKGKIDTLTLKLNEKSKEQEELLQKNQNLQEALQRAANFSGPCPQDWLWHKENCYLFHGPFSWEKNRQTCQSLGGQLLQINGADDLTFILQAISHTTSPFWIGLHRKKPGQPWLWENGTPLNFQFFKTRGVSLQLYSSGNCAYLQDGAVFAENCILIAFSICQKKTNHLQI
# UniProt Q9DBZ9, whole entry: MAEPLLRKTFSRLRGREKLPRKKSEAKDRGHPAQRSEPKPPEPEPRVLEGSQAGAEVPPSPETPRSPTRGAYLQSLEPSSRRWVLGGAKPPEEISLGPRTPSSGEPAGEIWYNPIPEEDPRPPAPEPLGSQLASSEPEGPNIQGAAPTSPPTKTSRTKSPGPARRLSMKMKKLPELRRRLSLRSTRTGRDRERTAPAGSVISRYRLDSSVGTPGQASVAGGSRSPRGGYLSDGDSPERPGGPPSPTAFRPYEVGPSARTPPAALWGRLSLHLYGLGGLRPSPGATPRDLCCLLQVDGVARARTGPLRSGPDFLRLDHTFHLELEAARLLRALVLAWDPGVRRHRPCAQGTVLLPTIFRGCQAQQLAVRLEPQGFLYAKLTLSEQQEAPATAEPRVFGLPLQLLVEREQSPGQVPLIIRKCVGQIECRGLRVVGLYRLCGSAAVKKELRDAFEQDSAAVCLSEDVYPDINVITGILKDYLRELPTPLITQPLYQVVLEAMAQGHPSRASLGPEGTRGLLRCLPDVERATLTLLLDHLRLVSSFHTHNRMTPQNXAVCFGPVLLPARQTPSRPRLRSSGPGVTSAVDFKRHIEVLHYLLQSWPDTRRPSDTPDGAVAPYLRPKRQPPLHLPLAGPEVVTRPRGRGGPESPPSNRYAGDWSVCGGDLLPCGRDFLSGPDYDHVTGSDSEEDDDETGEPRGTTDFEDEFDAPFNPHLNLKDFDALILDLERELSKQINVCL
# UniProt Q9EP73, whole entry: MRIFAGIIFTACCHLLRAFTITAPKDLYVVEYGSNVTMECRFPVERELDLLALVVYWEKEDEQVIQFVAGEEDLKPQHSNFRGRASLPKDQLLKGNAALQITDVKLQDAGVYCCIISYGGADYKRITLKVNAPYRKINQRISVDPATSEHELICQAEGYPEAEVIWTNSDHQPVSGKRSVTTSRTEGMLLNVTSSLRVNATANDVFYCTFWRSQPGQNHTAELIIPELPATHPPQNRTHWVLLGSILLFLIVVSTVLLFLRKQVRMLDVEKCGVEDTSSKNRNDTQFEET
# UniProt Q9DB96: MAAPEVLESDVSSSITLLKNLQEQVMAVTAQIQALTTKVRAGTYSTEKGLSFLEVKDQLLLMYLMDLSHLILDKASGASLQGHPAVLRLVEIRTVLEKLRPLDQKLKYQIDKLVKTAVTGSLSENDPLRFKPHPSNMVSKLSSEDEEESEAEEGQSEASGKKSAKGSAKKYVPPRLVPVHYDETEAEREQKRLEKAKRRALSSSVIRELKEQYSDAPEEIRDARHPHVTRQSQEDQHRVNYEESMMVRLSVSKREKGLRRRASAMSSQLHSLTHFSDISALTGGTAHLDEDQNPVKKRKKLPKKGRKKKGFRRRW
# UniProt Q9EPA7, whole entry: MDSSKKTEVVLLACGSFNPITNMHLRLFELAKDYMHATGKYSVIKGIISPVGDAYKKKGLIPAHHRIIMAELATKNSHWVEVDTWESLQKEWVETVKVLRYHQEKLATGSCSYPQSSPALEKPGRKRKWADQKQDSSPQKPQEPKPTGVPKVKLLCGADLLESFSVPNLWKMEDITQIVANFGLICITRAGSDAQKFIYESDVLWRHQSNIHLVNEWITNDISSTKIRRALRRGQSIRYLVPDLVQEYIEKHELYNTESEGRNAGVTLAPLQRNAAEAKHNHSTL
# UniProt Q9EP69: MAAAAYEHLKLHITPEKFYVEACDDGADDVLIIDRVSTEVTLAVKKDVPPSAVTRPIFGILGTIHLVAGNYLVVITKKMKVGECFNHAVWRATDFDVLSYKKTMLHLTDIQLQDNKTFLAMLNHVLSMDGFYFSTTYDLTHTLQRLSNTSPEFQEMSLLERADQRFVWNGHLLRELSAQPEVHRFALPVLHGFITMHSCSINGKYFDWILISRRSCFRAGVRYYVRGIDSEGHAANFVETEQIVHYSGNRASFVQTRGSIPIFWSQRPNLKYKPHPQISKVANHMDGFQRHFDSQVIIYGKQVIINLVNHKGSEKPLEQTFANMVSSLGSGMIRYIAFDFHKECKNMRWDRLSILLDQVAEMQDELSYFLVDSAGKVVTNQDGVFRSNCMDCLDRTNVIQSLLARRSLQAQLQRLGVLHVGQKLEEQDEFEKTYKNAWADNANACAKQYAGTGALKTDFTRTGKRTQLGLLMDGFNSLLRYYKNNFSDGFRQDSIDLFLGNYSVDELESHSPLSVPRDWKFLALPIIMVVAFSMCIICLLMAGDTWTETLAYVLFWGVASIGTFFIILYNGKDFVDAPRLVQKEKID
# UniProt Q9DCD5: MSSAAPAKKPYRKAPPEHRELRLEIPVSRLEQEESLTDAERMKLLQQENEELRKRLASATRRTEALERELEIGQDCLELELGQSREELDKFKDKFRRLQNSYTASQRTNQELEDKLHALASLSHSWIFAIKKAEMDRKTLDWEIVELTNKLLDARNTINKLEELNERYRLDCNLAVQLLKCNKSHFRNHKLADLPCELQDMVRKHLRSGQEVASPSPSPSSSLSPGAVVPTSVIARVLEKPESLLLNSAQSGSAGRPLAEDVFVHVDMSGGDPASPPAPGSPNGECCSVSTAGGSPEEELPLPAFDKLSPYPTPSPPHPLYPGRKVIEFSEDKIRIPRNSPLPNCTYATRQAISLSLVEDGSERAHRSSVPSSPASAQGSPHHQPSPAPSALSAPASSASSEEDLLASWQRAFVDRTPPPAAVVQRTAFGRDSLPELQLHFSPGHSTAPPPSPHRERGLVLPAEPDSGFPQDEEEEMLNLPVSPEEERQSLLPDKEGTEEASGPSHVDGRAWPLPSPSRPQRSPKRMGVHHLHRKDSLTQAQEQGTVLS
# Compound: CN[C@@H]1C[C@H]2O[C@@](C)([C@@H]1OC)n1c3ccccc3c3c4c(c5c6ccccc6n2c5c31)C(=O)NC4 [staurosporine]
# Assay: log2 fold change of tryptic peptide abundance, ligand vs vehicle (limited proteolysis) (log2 ratio); higher = more trypsin-susceptible (destabilized)
# Details: ligand concentration: 20 uM; sample: mouse liver crude lysate; replicate design: treated separately
row,Target,log2 fold change
1,"UniProt Q9EPQ7 (peptide sequence: TSTPSAAMK, peptide start residue: 101)",-0.373
2,"UniProt Q9DCP2 (peptide sequence: HLEGLLPVGVPTTDTQR, peptide start residue: 18)",-0.191
3,"UniProt Q9EPL8 (peptide sequence: QLQDIATLADQRR, peptide start residue: 991)",-0.291
4,"UniProt Q9DC70 (peptide sequence: LDDLINWAR, peptide start residue: 78)",-0.0576
5,"UniProt Q9DD20 (peptide sequence: VTCVDPNPNFEKFLTK, peptide start residue: 94)",0.37
6,"UniProt Q9DCX1 (peptide sequence: AWLATEAR, peptide start residue: 115)",0.0676
7,"UniProt Q9ERG0 (peptide sequence: QWTSLSLR, peptide start residue: 10)",-0.206
8,"UniProt Q9EQU5 (peptide sequence: LRQPFFQK, peptide start residue: 75)",0.289
9,"UniProt Q9DC07 (peptide sequence: YHEDFEK, peptide start residue: 122)",0.0134
10,"UniProt Q9DB25 (peptide sequence: EALPSIWDSPTK, peptide start residue: 54)",-0.146
11,"UniProt Q9DBG6 (peptide sequence: YIANTVELR, peptide start residue: 358)",-0.1
12,"UniProt Q9DBA9 (peptide sequence: FNHHSAMVLAAGLR, peptide start residue: 306)",0.813
13,"UniProt Q9EQH4 (peptide sequence: TPTYREPVSDYQILR, peptide start residue: 160)",-0.258
14,"UniProt Q9EPK6 (peptide sequence: KVLFALCSLLR, peptide start residue: 292)",0.53
15,"UniProt Q9EQ09 (peptide sequence: GKIDTLTLK, peptide start residue: 195)",0.247
16,"UniProt Q9ER73 (peptide sequence: ELEDVHSAK, peptide start residue: 140)",-0.367
17,"UniProt Q9DBZ9 (peptide sequence: RQPPLHLPLAGPEVVTRPR, peptide start residue: 622)",0.185
18,"UniProt Q9EQH3 (peptide sequence: KDILKDLVEMCR, peptide start residue: 127)",0.429
19,"UniProt Q9DCN2 (peptide sequence: MSQYLENMK, peptide start residue: 127)",-0.639
20,"UniProt Q9ERE7 (peptide sequence: LLEQWEKDDDIEEGDLPEHK, peptide start residue: 57)",-0.0683

row,Target,log2 fold change
1,"UniProt Q9EP73 (peptide sequence: MLDVEKCGVEDTSSK, peptide start residue: 266)",-0.119
2,"UniProt Q9DBC7 (peptide sequence: VSILESLDKWER, peptide start residue: 253)",0.163
3,"UniProt Q9DB96 (peptide sequence: EQYSDAPEEIRDAR, peptide start residue: 211)",0.335
4,"UniProt Q9EP71 (peptide sequence: KAPPPPISPTQLSDVSSPR, peptide start residue: 274)",-0.211
5,"UniProt Q9DCB4 (peptide sequence: SIEEREEEYQR, peptide start residue: 283)",0.035
6,"UniProt Q9DBB5 (peptide sequence: IHQLLPHIAFK, peptide start residue: 177)",-0.0803
7,"UniProt Q9DCX8 (peptide sequence: KALDQIMVTV, peptide start residue: 276)",0.671
8,"UniProt Q9EPA7 (peptide sequence: QDSSPQKPQEPK, peptide start residue: 134)",0.306
9,"UniProt Q9DBA8 (peptide sequence: NGDLHVDNIDVFCEK, peptide start residue: 221)",-0.147
10,"UniProt Q9EP69 (peptide sequence: YFDWILISRR, peptide start residue: 205)",0.485
11,"UniProt Q9DBU5 (peptide sequence: AGLAESTVESTSGGFHR, peptide start residue: 411)",-0.382
12,"UniProt Q9ER00 (peptide sequence: AAYYQKK, peptide start residue: 240)",0.817
13,"UniProt Q9EP82 (peptide sequence: KACPGQSALSC, peptide start residue: 403)",0.353
14,"UniProt Q9DCD2 (peptide sequence: AIEVLSDEHAR, peptide start residue: 655)",0.296
15,"UniProt Q9DB15 (peptide sequence: LVESLPQEIK, peptide start residue: 167)",-0.0592
16,"UniProt Q9DCV3 (peptide sequence: THNLLTTR, peptide start residue: 147)",0.206
17,"UniProt Q9DCL2 (peptide sequence: VLWLSGFSEHGAAWQPR, peptide start residue: 15)",-0.0408
18,"UniProt Q9DCD5 (peptide sequence: AWPLPSPSRPQR, peptide start residue: 511)",-0.404
19,"UniProt Q9DCG6 (peptide sequence: RGGELDISLRPDGR, peptide start residue: 258)",0.204

# Given with tabs: part of the list above
row	Target	log2 fold change
4	UniProt Q9DC70 (peptide sequence: LDDLINWAR, peptide start residue: 78)	-0.0576
10	UniProt Q9DB25 (peptide sequence: EALPSIWDSPTK, peptide start residue: 54)	-0.146
14	UniProt Q9EPK6 (peptide sequence: KVLFALCSLLR, peptide start residue: 292)	0.53
6	UniProt Q9DBB5 (peptide sequence: IHQLLPHIAFK, peptide start residue: 177)	-0.0803
7	UniProt Q9DCX8 (peptide sequence: KALDQIMVTV, peptide start residue: 276)	0.671
8	UniProt Q9EPA7 (peptide sequence: QDSSPQKPQEPK, peptide start residue: 134)	0.306
12	UniProt Q9ER00 (peptide sequence: AAYYQKK, peptide start residue: 240)	0.817
14	UniProt Q9DCD2 (peptide sequence: AIEVLSDEHAR, peptide start residue: 655)	0.296
